This is an account of results in US20240360248A1 (NANOMAB TECHNOLOGY, published 2024).

Assay [1] deals with T1, PTK7-His antigen protein from rhesus monkey species (rhesus monkey) (UniProt F7G3Z5).
T1 sequence: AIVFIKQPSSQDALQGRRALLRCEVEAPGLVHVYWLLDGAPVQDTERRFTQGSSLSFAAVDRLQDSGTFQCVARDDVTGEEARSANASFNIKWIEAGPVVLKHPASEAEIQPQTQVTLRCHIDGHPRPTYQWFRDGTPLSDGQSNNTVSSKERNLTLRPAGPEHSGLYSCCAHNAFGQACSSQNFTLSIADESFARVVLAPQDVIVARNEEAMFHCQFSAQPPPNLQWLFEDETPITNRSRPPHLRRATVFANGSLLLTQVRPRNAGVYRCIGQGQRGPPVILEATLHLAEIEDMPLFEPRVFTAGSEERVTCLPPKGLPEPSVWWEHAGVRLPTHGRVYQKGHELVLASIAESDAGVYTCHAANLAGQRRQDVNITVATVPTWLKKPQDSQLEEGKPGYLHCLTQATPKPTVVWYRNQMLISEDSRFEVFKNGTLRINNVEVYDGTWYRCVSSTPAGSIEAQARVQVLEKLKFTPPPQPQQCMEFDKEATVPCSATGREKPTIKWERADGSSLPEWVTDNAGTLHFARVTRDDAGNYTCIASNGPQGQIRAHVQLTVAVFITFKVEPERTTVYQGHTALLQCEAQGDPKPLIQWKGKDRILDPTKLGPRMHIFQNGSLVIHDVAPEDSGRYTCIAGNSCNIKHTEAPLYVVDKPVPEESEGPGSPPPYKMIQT
Put plainly: ELISA on coated antigen. For orientation: In an ELISA, binding on a coated surface is turned into a signal by an enzyme label.

Assay [2] addresses T2, PTK7-Fc antigen protein from mouse species (mouse) (UniProt Q8BKG3).
T2 sequence (looked up): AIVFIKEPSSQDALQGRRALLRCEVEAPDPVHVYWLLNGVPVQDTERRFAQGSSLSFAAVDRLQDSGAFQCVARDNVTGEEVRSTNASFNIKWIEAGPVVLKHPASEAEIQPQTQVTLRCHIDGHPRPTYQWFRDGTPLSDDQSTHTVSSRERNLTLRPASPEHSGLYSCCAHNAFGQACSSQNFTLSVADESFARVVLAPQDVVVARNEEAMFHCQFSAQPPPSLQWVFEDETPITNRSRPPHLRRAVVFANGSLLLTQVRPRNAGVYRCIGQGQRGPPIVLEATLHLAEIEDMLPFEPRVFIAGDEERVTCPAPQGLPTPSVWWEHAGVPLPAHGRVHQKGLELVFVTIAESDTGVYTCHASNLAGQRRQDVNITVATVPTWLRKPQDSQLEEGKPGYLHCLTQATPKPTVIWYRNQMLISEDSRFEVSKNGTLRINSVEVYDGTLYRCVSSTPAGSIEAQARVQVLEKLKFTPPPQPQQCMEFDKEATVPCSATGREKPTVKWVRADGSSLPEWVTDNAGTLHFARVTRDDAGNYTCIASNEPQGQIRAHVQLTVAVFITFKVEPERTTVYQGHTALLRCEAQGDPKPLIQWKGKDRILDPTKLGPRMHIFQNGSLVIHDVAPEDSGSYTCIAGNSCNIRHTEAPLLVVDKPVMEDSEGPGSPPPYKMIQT
Put plainly: ELISA on coated antigen.

These are yes or no findings as the source states them, for the method shown. Some results given as binding are weak or reduced against the parent protein; the word gives no strength. Tags and fused reporters may be left off the sequences shown.

B1: MY2132-4-22 (VHH)
VHH: QVQLQESGGGSVQAGGSLRLSCTASGFTFDDYDMVWYRQAPGNEYEWLSTVSRGGNLYYADSVKGRFTISRDNAKNTVYLNMSRVKPEDTAVYYCAADLRSVPSTYRARTCRGRYCRDYWGQGTQVTVSS
notes: Camel VHH expressed in E. coli WK6 and purified on a nickel column; also called MY2132-4-22 VHH; anti-PTK7 single domain antibody
In the case of B1, the binding result in assay [1] and in assay [2] was “binds” in each case.

B2: MY2132-5-51 (VHH)
VHH: QVQLQESGGGLVQPGGSLTLACAASGFAFSSYAMRWVRQAPGKGLEGVSSISAGGDETYYADFAKGRFTISRDNAKNTLYLQLNSLKTEDTAMYYCAKGDRNSPRYSSWPITPVGQGTQVTVSS
notes: Camel VHH expressed in E. coli WK6 and purified on a nickel column; also called MY2132-5-51 VHH; anti-PTK7 single domain antibody
For the molecule B2, the binding entry in assay [1] is recorded as “binds”.
